In PubChem BioAssay AID1347423 (Functional Genomics Laboratory (NCATS/FGL), 2020):
The whole screen tested about 52,000 sequences, of which about 210 (0.4%) were called active.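 How the source made its calls: active means gene whose silencing raises cell survival under the drug, median off-target-corrected z-score across its silencing RNAs 2 or more; inactive means the rest.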 The list shows a part of the results.

experiment: Resistance to Poly (ADP-Ribose) Polymerase inhibitor: Gene Identification via Genome-wide siRNA Screen; conditions: mouse BRCA2 R2336H ES cells, olaparib, CellTiter-Glo viability; stronger effect = higher value
Outline: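 Genome-wide siRNA screen (3 siRNAs/gene, 20 nM) in mouse ES cells carrying hypomorphic BRCA2 R2336H; olaparib 500 nM added 48 h post-transfection, CellTiter-Glo viability 72 h later. Normalized to plate-median negative control; MAD z-scores, gene median, seed-adjusted.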

| Sequence | z-score |
| --- | --- |
| GCAUGACAGAGUUAUUCAUTT against Olfr474 | inactive: 0.132 |
| CGACUAUGGUUUAAUCAUCTT against Atp11a | inactive: 0.383 |
| CGGUACAGGGUAAAGGACATT against 4931440B09Rik | inactive: -0.305 |
| CCUAUUAAAUCUCUGUAAGTT against D030051D21 | inactive: -0.621 |
| GGAAUUUUGCCACUAAGAUTT against Pfkm | inactive: -1.9 |
| GGAGCUGAAUGUGUUUCGGTT against Vmd2l1 | inactive: 0.371 |
| GCCGGCCAGAAUAUACAUUTT against B930041F14Rik | inactive: -1.52 |
| CCGGAGUCAGUAUCCAGAATT against 1110007M04Rik | inactive: -1.64 |
| GGUUUCUCGACCUACAUUUTT against BC040823 | inactive: -1.24 |
| GGCAUCAAAGUGACAGAUGTT against 4921511I16Rik | inactive: -0.915 |
| GGACUCUGCCUUUGACCCATT against Myl4 | inactive: -0.112 |
| GGAACACUCAGGUCUUUCUTT against Olfr450 | inactive: -1.55 |
| GGAGCCCAAAAAGAAGAAATT against Mrpl48 | inactive: 0.144 |
| CGGCAAUUCCAGAAAUGAUTT against Wbscr16 | inactive: 0.597 |
| GGACUUUCUUGAGGUAUUATT against 2810453K03Rik | inactive: 0.03 |
| GGCAAUAAUCUUAGAGGUUTT against 9530068E07Rik | inactive: -1.84 |
| GCGAAGGAUGAUGUGUAUUTT against 2610529C04Rik | inactive: 0.6 |
| GGAGUUUGCCAGUCAGAUCTT against Ralgps1 | inactive: -2.04 |
| GGAAGUACAGUGGUCUCUGTT against 4930477M19 | inactive: -0.412 |
| GGCUUUAAGGGACAACUGATT against D17Wsu94e | inactive: -0.639 |
| GGUAUUAAAUGCUAUGCUGTT against Srp54 | inactive: 0.945 |
| GGUGGUGCAUCCUAAGAAATT against Gp1bb | inactive: 0.959 |
| CCUCAGAAAAAGCCUAUAGTT against Kcnj3 | inactive: -1.21 |
| GGAUCAAGAUGUUUACUAATT against Nedd1 | inactive: -0.37 |
| GGCCAAUAAAGAAACAAACTT against Cst9 | inactive: 1.86 |
| CCAUGCUUUUGAUUUUAGUTT against Lrig2 | inactive: 0.867 |

| Sequence | z-score |
| --- | --- |
| GGUACAUUAAGGCACUGGCTT against Mgat5 | inactive: -0.0193 |
| GUGCUUUCGUGUUUUUCAATT against Klrb1b | inactive: 0.521 |
| GGAUUAUACACACGAAUUUTT against Gosr1 | inactive: 0.404 |
| GGCAACAGCCAUCUAAACGTT against Cdkn2d | inactive: -0.277 |
| GGCCCUCAGUUAUUAUGAGTT against AI661311 | inactive: 0.298 |
| GGAAUAUCAGCCAUAAGUUTT against A930004D23Rik | inactive: -0.0561 |
| CCCUAGCAUCAAGAGUGCUTT against 2510002A14Rik | inactive: 0.159 |
| GGCCAUUCAGAUCUUAACCTT against Hadhsc | inactive: -0.0172 |
| GGUUAAACUUGGUGAAUUATT against Kcnj16 | inactive: -0.334 |
| GGUCUUAAGUUCAGAACCCTT against Gtlf3b | inactive: 0.173 |
| CGUUCUACCAAUCAUUAAUTT against Mrpl49 | inactive: -0.0188 |
| GGUGUCAUGAUGAACACAGTT against Slc22a12 | inactive: -0.801 |
| CCACUUAGGUUAGAAAGAATT against R3hdm | inactive: -0.949 |
| GGCAAUCACGUGACAUUUCTT against Stk31 | inactive: -1.25 |
| GGUUCAUCGUUUUUAAUAGTT against Emb | inactive: 0.402 |
| CUCCUCAGUCAACAAGAACTT against Hoxc11 | inactive: -0.826 |
| GGAGAAGGUUUUGAUGUGGTT against Drg1 | inactive: 1.11 |
| GGGAGUAUGUUUGUGGCUCTT against Edg1 | inactive: -0.109 |
| CGUAGCCGAGAAGACCCUATT against Shh | inactive: 0.637 |
| GGUGUUGUUCCCUGUAAUATT against Tde2 | inactive: -0.824 |
| CGCUGCUGUAUAAGCCCAUTT against Prkab2 | inactive: -1.11 |
| GUGUUCUAUGGAUCCUCUCTT against Fpr-rs4 | inactive: -0.496 |
| GGCAAAACUCAUGUUCUUUTT against Prox1 | inactive: -0.771 |
| GGAUCUGGUUGGCAAGCAUTT against 2310015J09Rik | inactive: 0.686 |
| CCAAUGUGAUCUUGAGCCATT against 1110012D08Rik | inactive: -1.94 |
| GGGAUAGUGUAAGUUAGUUTT against Dppa4 | inactive: 1.58 |

| Sequence | z-score |
| --- | --- |
| CCACUGUCAGGCCAAAAACTT against 2210417J20Rik | inactive: -1.18 |
| GGUCCUUAGCUGAGUCAUUTT against D14Ertd449e | inactive: 1.2 |
| GGAAGACGACACUGUGUGGTT against Dp1l1 | inactive: 1.41 |
| GGGUAUGAGGGCCAAAAUATT against A230106M15Rik | inactive: -2.94 |
| GGGAGAUUCAUUUUCCCAGTT against 4732452J19Rik | inactive: 0.725 |
| GGAUGAGUGAAGACUUAGCTT against Sag | inactive: -0.0608 |
| GGCAGAAGUUACAAAAGAATT against H47 | inactive: -1.49 |
| GGAACAGCAGCAGAGUGAATT against Gkap1 | inactive: -2.2 |
| CGGAUUGAGUAAUUAUUUCTT against Zcwcc2 | inactive: 0.894 |
| GCAUAACUAACCACAUCAATT against Sema5a | inactive: 0.467 |
| CCUACUCAGUGACAAAGGATT against Olfr366 | inactive: -1.86 |
| UAGGAUUUAGCAAGCCACCTT against BC038328 | inactive: -0.447 |
| GCGGAAGCGUGAAUCCAAATT against MGC67569 | inactive: -0.309 |
| CCCUAAUCAAGUUUGCUAUTT against Armc7 | inactive: 1.42 |
| GGUGGACUUGUACCUCUUCTT against Tnks | inactive: 0.29 |
| GGGACUUAUACUGAAAUAATT against Eif2ak4 | inactive: -2.42 |
| GGUUGCGUGUGGUUACUAUTT against 1700056O17Rik | inactive: -1.64 |
| CCAAUUACCGAAUAAGUUCTT against Map3k12 | inactive: 0.0421 |
| GGUGGUUUGUGAUGAAAAUTT against Pabpc1 | inactive: -3.26 |
| GGAAGGUUCAGAAGUGACATT against Strm | inactive: -0.785 |
| GGACUUUGUAGACAACGUGTT against 1810038H16Rik | inactive: 0.00808 |
| CCACAGACAGUUAUUACUGTT against Emr1 | inactive: -1.55 |
| GGUUUUCCUGUUAUUUUCUTT against Mapre2 | inactive: 1.14 |
| GGUAUACCAAGAAGCUAAGTT against Kctd14 | inactive: 1.67 |
| GGCGCAGGGAAUAAUCUACTT against 6530421E24Rik | inactive: 0.763 |
| CCUUUCAAGUUGUAGGCUGTT against BC028265 | inactive: -0.639 |

Random excerpt: 3 records from the list

| Sequence | z-score |
| --- | --- |
| GGAUGAGUGAAGACUUAGCTT against Sag | inactive: -0.0608 |
| GGCGCAGGGAAUAAUCUACTT against 6530421E24Rik | inactive: 0.763 |
| GGGAGAUUCAUUUUCCCAGTT against 4732452J19Rik | inactive: 0.725 |

(continued)

| Sequence | z-score |
| --- | --- |
| GGAUUGACAGUGUCAGUCUTT against Gnal | inactive: 0.5 |
| GGAGAUACAAUGUGAAAAGTT against Odf2 | inactive: -2.12 |
| GGUACUGAUCAUGGAAUAUTT against Hibch | inactive: -1.55 |
| GGGUUGCUAAUGGAGAUGGTT against Slc12a1 | inactive: -0.326 |
| GCUGCUCAGCCAUACCUUGTT against 4921520L01Rik | inactive: -1.4 |
| GGUUUUACCCUGUAAUACUTT against 1700012B09Rik | inactive: 0.0751 |
| GGAGGAUGAGGAUUUUGAUTT against Tce1 | inactive: 1.47 |
| GGCCAUUAAUUACUACGAGTT against ttc21a | inactive: 0.669 |
| GGGACUGGACCCAUACAAUTT against Cox5b | inactive: -0.657 |
| CCCAUCAUCUUCCCAUUCGTT against Olfr146 | inactive: -0.426 |
| GGUGGACCUUUGAAAAAGCTT against Ifrg15 | inactive: -0.0982 |
| CCUUAACUGGCACAAUUGCTT against LOC238447 | inactive: -0.474 |
| UCAUCUUACUCACAGUCUCTT against Tas2r118 | inactive: -0.609 |
| GGAAAUGAUGUGUUUCAGUTT against Fmo5 | inactive: 0.322 |
| GGAGCAAAGUGAUAAUUAUTT against Pcdhga8 | inactive: -0.0674 |
| CCCAUUUAAAUACGGGAUUTT against 4932441K18 | inactive: -1.8 |
| GGACAAAACGUGCAAUAUGTT against AW548124 | inactive: 0.214 |
| CCAUGUUCUUCUAUGGCUCTT against 0610041B22Rik | inactive: 1.07 |
| CGGUUCAGCUGUCAUUGAUTT against A630029G22Rik | inactive: -0.495 |
| GGACAGAAAAACCUUCUAATT against Hexb | inactive: 0.892 |
| GCUGUGGUGUUAGAAAUAATT against 1700072E05Rik | inactive: 0.231 |
| GGUGAAGACGUGGUAUCAATT against Barx1 | inactive: 0.461 |
| GGUGUAUUGCAUCAUUUCUTT against 2310061B02Rik | inactive: 0.227 |
| GCUAAGGAUUAGAAGGAAATT against Psme2 | inactive: 0.429 |
| CCUGGUAUAUUACCGCUUCTT against 1110036O03Rik | inactive: 0.708 |

Four consecutive entries already listed, for reference:

| Sequence | z-score |
| --- | --- |
| CCUCAGAAAAAGCCUAUAGTT against Kcnj3 | inactive: -1.21 |
| GGAUCAAGAUGUUUACUAATT against Nedd1 | inactive: -0.37 |
| GGCCAAUAAAGAAACAAACTT against Cst9 | inactive: 1.86 |
| CCAUGCUUUUGAUUUUAGUTT against Lrig2 | inactive: 0.867 |
